From ChEMBL document CHEMBL3988442, “University of Dundee, Small-Polar-MMV Screening Library” (2021).

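Viability assay of Plasmodium falciparum sporozoites; the read-out is not stated. The concentration is filed as 10 mM, unlikely as a test dose, so the dose is not known. The record gives no direction; compounds that gave an IC50 in retests scored well above the rest, so higher reads as lower viability. Strong results were mostly tested again. Size under these conditions: about 34,000 compounds, about 280 of them at 50% or above in at least one test.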

Each number is a percent effect as filed. How 0% and 100% were set is not recorded. Most values in the screen are low, and negative values occur. Compounds were drawn at random from those tested, without regard to their results. Two or more numbers in one place are separate tests of the same structure; such repeats can differ widely.

Cc1ccc(S(=O)(=O)N2CCC(O)(CN(C)C)C2)cc1 (configuration not stated) read 5.13%.
CS(=O)(=O)CCNCc1ccc(OCc2ccccn2)cc1 read 14.03%.
O=C(CN1CCc2cncnc2C1)Nc1ccc(Cl)cn1 read 5.192%.
CC(C)CC(C)N(C)C(=O)c1nc(S(C)(=O)=O)n2ccccc12 (configuration not stated) read 2.507%.
[H][C@]12CCN(S(=O)(=O)c3cccc(F)c3)[C@@]1([H])CC[C@@H](COC)O2 read -15.72%.
CC(=O)N1CCc2c(nc(N(C)C)nc2N(C)CCC2CCCCO2)C1 (configuration not stated) read -1.404%.
CN(C)Cc1ccnc(C2CCCN2Cc2cc[nH]n2)n1 (configuration not stated) read -10.07%.
O=C(c1cccc(F)c1)N1CCCN(Cc2cscn2)CC1 read 4.321%.
CCc1nnc2n1CCN(C(=O)c1ccnc(N(C)C)c1)C2 read -8.713%.
COc1cccc2[nH]c(C(=O)N3CCNCC3C(N)=O)cc12.Cl (configuration not stated) read 31.38% and -5.641% and -0.4947%.
O=C1CCNc2ccccc2CN1Cc1ccco1 read -14.99%.
OC(CN1CCC(c2ccn[nH]2)CC1)c1cc(F)ccc1F (configuration not stated) read 21.89%.
CC(=O)NCc1nn(C)c2c1CN(Cc1ccsc1)C2.O=C(O)C(F)(F)F read -10.48%.
Cc1ccc(NC2CCN(C(=O)CCn3nc(C)cc3C)CC2)nn1 read 5.224%.
O=C1CSC(c2ccsc2)c2sccc2N1 (configuration not stated) read -3.509%.
CCn1ccnc1CN1CCC(N(C)Cc2ncc(C)o2)C1 (configuration not stated) read -4.902%.
O=C(NCc1cccnc1)N1CCn2c(Cn3cccn3)cnc2C1 read 11.62%.
Cc1csc(CNC(=O)NCCc2ccc3c(c2)OCCO3)n1 read -12.02% and -25.95% and -15.26%.
Cl.Cn1nc(C2CCCN(Cc3cccc(F)c3)C2)c2nccnc21 (configuration not stated) read -18.6%.
Cn1ncc2c(=O)[nH]c(N3CCCC3c3cccc(Cl)c3)nc21 (configuration not stated) read -7.135%.
Cc1cc(C)n(CC2CCCN2C(=O)c2cccc3c2OCCO3)n1 (configuration not stated) read 2.234%.
O=C(O)C(F)(F)F.O=C(O)C(F)(F)F.[H][C@@]12CCN(C3CCC3)C[C@]1(C(=O)NCCc1ccccn1)CCO2 read -8.669%.
CCCNC(=O)CCC(=O)N1CCC(c2noc3cc(F)ccc23)CC1 read -3.231%.
COc1ccc(N)c(N2CCN(C(C)=O)CC2)n1 read -8.672%.
COc1ccc(CN(Cc2ccco2)Cc2[nH]cnc2C)c(OC)c1.O=C(O)CC(O)(CC(=O)O)C(=O)O read -0.5707%.
CN(C)C(=O)N1CC2(CCNCC2)c2cc(F)ccc21.O=C(O)C(F)(F)F read 9.933%.
O=C(NCc1nn(-c2ccccc2)c2c1CCC2)N1CCCC(O)C1 (configuration not stated) read 15.15%.
c1ccc2oc(CN3CCCC3c3noc(C4CC4)n3)nc2c1 (configuration not stated) read 8.668%.
COCCOc1ccc(CNCC2CNc3cc(C)nn3C2)cn1 (configuration not stated) read -3.277%.
CC(CCc1ncnn1Cc1cccc(Cl)c1)N1CCCC1 (configuration not stated) read 4.239%.
CN1CCN(Cc2cn3c(n2)CN(C(=O)N2CCOCC2)CC3)CC1.O=C(O)C(F)(F)F.O=C(O)C(F)(F)F read 1.963%.
Cc1cc(C(=O)N2CCCC(c3nccn3Cc3cscn3)C2)on1 (configuration not stated) read -13.77%.
CC(Cn1cccn1)NCc1csc(-c2ccccc2F)n1 (configuration not stated) read -229.4% and 36.96% and -8.073%.
O=C(NCc1nnc2n1CCC2)N(Cc1ccco1)C1CC1 read -9.294%.
CCCS(=O)(=O)N1CCC(NC(=O)c2ccc(Cl)s2)CC1 read 6.652%.
Cc1cccnc1NCCNC(=O)C1CCN(C(=O)N(C)C)CC1 read 1.065%.
O=C(NC1CCN(c2ncccn2)CC1)c1cccc(-n2ccnc2)c1 read -5.867%.
Cc1cc(C(F)(F)F)nc(CCNc2nc(C)nc3sccc23)n1 read -2.615%.
CCCC(=O)N1CCC(c2nc(O)c3c(n2)CCN(C2CCCC2)C3)C1 (configuration not stated) read 23.68%.
[H][C@@]12OCCN(C(=O)COC)[C@@]1([H])CC[C@H]2OC read 7.314%.

Repeated from the top, 4 entries:

* Cc1ccc(S(=O)(=O)N2CCC(O)(CN(C)C)C2)cc1 (configuration not stated) : 5.13%
* CS(=O)(=O)CCNCc1ccc(OCc2ccccn2)cc1 : 14.03%
* O=C(CN1CCc2cncnc2C1)Nc1ccc(Cl)cn1 : 5.192%
* CC(C)CC(C)N(C)C(=O)c1nc(S(C)(=O)=O)n2ccccc12 (configuration not stated) : 2.507%